Experimental findings from PubChem BioAssay AID493014 (National Center for Advancing Translational Sciences (NCATS), 2011) are described below.

The list shows a part of the results. Shown are side measurements of this screen, not its main read-out; they come without a call. Compounds called inactive in the main read-out are mostly missing here. The note in brackets gives the kind of curve behind each potency; many fits are weak.

The experiment in a line: qHTS Assay to Find Inhibitors of Chronic Active B-Cell Receptor Signaling. Conditions: ABC-DLBCL IkBa-CBG/CBR reporter, luminescence ratio (green luciferase fused to IkBa over red control in TMD8 lymphoma cells), 4 h. The essentials:
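Doxycycline induced both beetle luciferases in TMD8 lymphoma cells; IKK-driven degradation limits the IkappaBalpha-fused green signal, while red luminescence normalises for cell number and nonspecific effects. Compounds tested up to 46 uM, 4 hrs.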
On the technique in general: qHTS replaces the single test concentration by a dilution series.

The mark [1] stands for this setting: measured here: CBR red luminescence, cell number.
Setting [2] is: measured here: IkBa-CBG green luminescence.

With `O=C(Nc1ccc(Oc2ccc(C(F)(F)F)cn2)c(Cl)c1)C1CC1`, the AC50 (usually the concentration giving half of the maximal activity seen) under setting [1] is 22.4 µM [rising, single point].
Turning to `CCN(CC)c1ccc(S(=O)(=O)N2CCOCC2)cc1NC(=O)CSc1nncn1C`, the AC50 under setting [1] was 29.1 µM [rising, single point].
With `COc1ccc(S(=O)(=O)CCC(=O)NCCc2cccc(C)c2)cc1`, the AC50 under setting [1] was 0.164 µM [rising, full curve, poor fit].
Regarding `CCSC1=C(C#N)C2(CCCC2)C(C#N)=C(N)N1`, the concentration at half-maximal activity (AC50) under setting [1] was 20 µM [falling, single point].
For the compound `O=C(C1CCCN1C(=O)c1cccs1)N1CCc2ccccc21` (configuration not stated), under setting [1], the concentration at half-maximal activity (AC50) was 35.5 µM [rising, single point].
Still for that read-out and setting: to `O=C1NC2(CCCCO2)CO1` (configuration not stated) belongs 35.5 µM [falling, single point]; to `Cc1cc(Br)ccc1NC(=O)CN1C(=O)C2C3CC(c4ccccc4)C(C3)C2C1=O` (configuration not stated), 10 µM [falling, partial curve, poor fit].
As to `O=c1[nH]c2ccccc2n2c(-c3ccccc3)nnc12`, the AC50 runs as follows: under setting [1], 9.2 µM [falling, single point]; under setting [2], 20.6 µM [rising, partial curve, poor fit].
As for `CCN(CC)C(=O)/C=C/c1ccc(OC)c(S(=O)(=O)N2CCCCC2)c1`, the AC50 under setting [1] is 14.1 µM [rising, partial curve, poor fit].
Regarding `Cc1cc2ncn(CCC(=O)NC3CCCC3)c2cc1C`, the AC50 under setting [1] is 11.2 µM [rising, partial curve, poor fit].
Same read-out and setting: to `COC(=O)N/N=C/c1ccc(-c2cc(Cl)ccc2Cl)o1` belongs 1.3 µM [rising, partial curve, poor fit].
In the case of `O=C(Nc1nc2ccccc2s1)Nc1ccc(F)cc1F`, the AC50 under setting [1] was 4.47 µM [falling, full curve].
Turning to `O=C1N=C(N2CCC(Cc3ccccc3)CC2)S/C1=C/c1cn[nH]c1-c1ccccc1`, the AC50 under setting [1] is 15.8 µM [falling, partial curve, poor fit].
In the case of `Cc1nnc2c(NC3CCCC3)nc3ccccc3n12`, the AC50 under setting [1] was 7.08 µM [falling, partial curve, poor fit].
Regarding `CC(=O)Nc1ccc(C)cc1`, under setting [1], the concentration at half-maximal activity (AC50) was 5.17 µM [falling, partial curve, poor fit].
In the case of `O=C(COC(=O)c1ccccc1C(=O)c1ccc(Cl)c([N+](=O)[O-])c1)NC1CC1`, the AC50 is 7.94 µM [falling, partial curve, poor fit] under setting [1] and 5.01 µM [rising, full curve, poor fit] under setting [2].
As to `Cc1ccc(NC(=O)c2cc(C)on2)cc1`, under setting [1], the AC50 was 3.98 µM [rising, partial curve, poor fit].
Turning to `Cc1nn(Cc2ccccc2)c(Cl)c1/C=C/C(=O)OC(C)C(=O)N1CCCC1` (configuration not stated), the AC50 under setting [1] was 5.62 µM [rising, single point].
As for `COc1ccc(-c2cc(=O)c(C(=O)c3ccc(C)cc3)n[nH]2)cc1`, the AC50 under setting [1] is 0.2 µM [falling, partial curve, poor fit].
For the compound `Nc1nccnc1C(=O)OCC(=O)c1ccc[nH]1`, the AC50 under setting [1] is 20.6 µM [falling, partial curve, poor fit].
Take `COc1ccc(-c2cc(=O)oc3c(C)c(OCC(=O)NCCCn4ccnc4)ccc23)cc1`: under setting [1], the AC50 is 6.31 µM [rising, single point].
With `Cc1ccccc1C(=O)N1CCC(C(=O)Nc2cc(C(F)(F)F)ccc2N2CCCC2)CC1`, the AC50 under setting [1] is 18.4 µM [falling, single point].
With `O=S(=O)(NCC(c1ccco1)N1CCCCC1)c1ccccc1C(F)(F)F` (configuration not stated), under setting [1], the AC50 is 25.9 µM [falling, single point].
With `COc1ccccc1-c1cc2ccccc2[nH]1`, the AC50 under setting [1] is 0.184 µM [rising, full curve, poor fit].
On the same count and under the same terms, the figure for `Cc1nc2ccccc2c2nc(NC(=O)Cc3ccccc3)nn12` is 0.184 µM [falling, full curve, poor fit].
With `CC(C)C(C(=O)NCc1ccco1)N(C(=O)CNS(=O)(=O)c1ccccc1)C1CCCC1` (configuration not stated), the AC50 under setting [1] is 35.5 µM [falling, single point].
Turning to `N/C(=N\OC(=O)c1ccccc1Cl)c1cccc([N+](=O)[O-])c1`, the AC50 under setting [1] is 5.62 µM [rising, partial curve, poor fit].
For the compound `CCOc1ccc(CNC(=O)CCCOc2cc(=O)n(C)c3ccccc23)cc1`, the AC50 under setting [1] was 25.9 µM [falling, single point].
Turning to `CCOC(=O)C1CCCN(c2c(NCCN3CCCCC3CC)c(=O)c2=O)C1` (configuration not stated), the AC50 under setting [1] was 1.46 µM [rising, partial curve, poor fit].
As for `COc1ccc(-c2coc3cc(O)ccc3c2=O)cc1O`, the AC50 under setting [1] is 0.891 µM [falling, full curve].
Turning to `CCN(CC)CCCN=Cc1c(-c2ccccc2)[nH]n(-c2nc3ccccc3s2)c1=O`, the half-maximal activity concentration (AC50) under setting [1] is 31.6 µM [falling, single point].
Turning to `O=C(Nc1ccc2c(c1)Cc1ccccc1-2)c1ccncc1`, the AC50 under setting [1] was 3.26 µM [rising, partial curve, poor fit].
The same measure, in the same setting: the figure for `Cc1ncc(CO)c(/C=N/NC(=O)c2ccoc2C)c1O` is 29.1 µM [falling, single point].
On to `Fc1ccc(-c2cc(C(F)(F)F)nc(-n3cc(Cl)cn3)n2)cc1`, for which, under setting [1], the AC50 was 5.62 µM [falling, single point].
Take `CCOc1ccc(NC(=O)c2c(NCc3cccnc3)sc3c2CCCC3)cc1`: the AC50 under setting [1] was 10 µM [falling, partial curve].
`Cc1cc(N2CCCCC2)nc(-c2ccc(Br)cc2)n1`: under setting [1], the AC50 is 35.5 µM [rising, single point].
Take `Fc1ccccc1-c1nc(NCc2ccco2)c2ccccc2n1`: the AC50 under setting [1] is 35.5 µM [falling, single point].
Turning to `CCOC(=O)c1ccc(NC(=O)N2CCN(S(C)(=O)=O)CC2)cc1`, the AC50 under setting [1] is 29.1 µM [rising, single point].
The same measure, in the same setting: the figure for `Fc1cc(NCc2ccccc2)nc(NCc2ccccc2)n1` is 32.6 µM [falling, single point]; for `Cc1ccccc1NC1=C(Cl)C(=O)N(C2CCCCC2)C1=O` it is 1.84 µM [falling, partial curve, poor fit]; for `O=C(CSc1nnc(-c2ccccc2F)o1)N1CCNC1=O` it is 6.51 µM [falling, single point].
With `O=C(O)CCCC(=O)Nc1ccc(Br)cc1C(=O)O`, the AC50 under setting [1] is 5.8 µM [falling, partial curve].
For `Cc1ccc(NC(=O)/C(=C/c2cccc([N+](=O)[O-])c2)NC(=O)C2CCCCC2)cc1`, under setting [1], the AC50 is 3.66 µM [falling, single point].
The same measure, in the same setting: to `CC(C)C(NC(=O)c1ccccc1F)C(=O)NCCc1ccccn1` (configuration not stated) belongs 0.562 µM [rising, full curve, poor fit]; to `NC(=O)c1oc2ccccc2c1NC(=O)CCc1ccccc1`, 14.6 µM [falling, partial curve, poor fit].
On to `O=C(CNC(=O)c1ccco1)OCC(=O)c1ccc([N+](=O)[O-])cc1`, for which, under setting [1], the AC50 was 17.8 µM [falling, single point].
Take `O=C(Nc1nccs1)c1cc(-c2ccccc2)nn1-c1ccccc1`: the AC50 under setting [1] was 0.00651 µM [rising, full curve, poor fit].
With `O=[N+]([O-])c1ccc(N/N=C/c2cccnc2)cc1`, the AC50 under setting [1] was 3.55 µM [rising, full curve, poor fit].
Turning to `CCOC(=O)Cc1csc(NC(=O)c2ccc3ccccc3n2)n1`, under setting [1], the AC50 is 2 µM [falling, full curve].
For the compound `CCOc1ccc(-c2nnc(SCC(=O)N(CC)CC)n2N)cc1`, under setting [1], the concentration at half-maximal activity (AC50) is 3.98 µM [falling, partial curve, poor fit].
As to `CC(=O)N1c2ccccc2C(C)(c2ccccc2)CC1(C)C` (configuration not stated), the AC50 under setting [1] is 0.00517 µM [falling, full curve, poor fit].
On to `COc1ccc(CNC(=O)C(=O)NCC2OCCN2S(=O)(=O)c2ccc3c(c2)OCCO3)cc1` (configuration not stated), for which the AC50 under setting [1] was 7.31 µM [rising, partial curve, poor fit].
As to `Cc1ccccc1Nc1nc(N)nc(CCl)n1`, under setting [1], the AC50 was 35.5 µM [falling, single point].
In the case of `O=S(=O)(NCC(c1cccs1)S(=O)(=O)c1ccccc1)c1ccc(F)cc1` (configuration not stated), the AC50 under setting [1] is 0.794 µM [falling, single point].
Turning to `O=C(NC(=S)Nc1ccc2c(c1)OCCO2)c1ccc(F)cc1Cl`, the AC50 under setting [1] was 14.6 µM [falling, partial curve, poor fit].
The same measure, in the same setting: the figure for `O=C(NC1CCCc2ccccc21)c1ccc(F)cc1F` (configuration not stated) is 3.55 µM [rising, full curve, poor fit]; for `COc1ccc(CCNC(=O)CSc2nnc(-c3ccc(F)cc3)c3ccccc23)cc1OC` it is 32.6 µM [falling, partial curve, poor fit]; for `COc1ccc2c(Cl)c(C(=O)NCCCn3ccnc3)sc2c1` it is 10.3 µM [rising, partial curve, poor fit].
As for `Cc1ccsc1C(=O)OCC(=O)NCc1ccccc1`, under setting [1], the AC50 was 0.206 µM [rising, partial curve, poor fit].
Regarding `Cc1ccc(S(=O)(=O)Nc2ccccc2/C=N/c2nc3ccccc3n2C)cc1`, the AC50 under setting [1] is 3.26 µM [rising, partial curve, poor fit].
Regarding `CC(=O)Nc1ccc(NC(=O)C2CCCN2/C=C/C(=O)C(F)(F)F)cc1` (configuration not stated), the AC50 under setting [1] is 5.62 µM [falling, single point].
Regarding `COCCNC(=O)c1cc2c(=O)n3cccc(C)c3nc2n1C`, the AC50 under setting [1] is 11.6 µM [rising, partial curve, poor fit].
Still for that read-out and setting: to `Nc1nc(N2CCN(C/C=C/c3ccccc3)CC2)nc2ccccc12` belongs 14.6 µM [rising, partial curve, poor fit]; to `CC(=O)Nc1cccc(C(=O)/C=C/c2ccc(C)cc2)c1`, 18.4 µM [falling, single point].
`CCC(=O)NCCc1nc2ccccc2[nH]1`: under setting [1], the AC50 was 29.1 µM [falling, single point].
